These are yes or no findings as the source states them, for the method shown. Binding seen in cells or lysates may run through a third protein. Here binding means that the protein was enriched with, or labelled near, the bait; the list need not be complete.

Amino acid sequences for entries named in this document (tags omitted).
UniProt Q64727: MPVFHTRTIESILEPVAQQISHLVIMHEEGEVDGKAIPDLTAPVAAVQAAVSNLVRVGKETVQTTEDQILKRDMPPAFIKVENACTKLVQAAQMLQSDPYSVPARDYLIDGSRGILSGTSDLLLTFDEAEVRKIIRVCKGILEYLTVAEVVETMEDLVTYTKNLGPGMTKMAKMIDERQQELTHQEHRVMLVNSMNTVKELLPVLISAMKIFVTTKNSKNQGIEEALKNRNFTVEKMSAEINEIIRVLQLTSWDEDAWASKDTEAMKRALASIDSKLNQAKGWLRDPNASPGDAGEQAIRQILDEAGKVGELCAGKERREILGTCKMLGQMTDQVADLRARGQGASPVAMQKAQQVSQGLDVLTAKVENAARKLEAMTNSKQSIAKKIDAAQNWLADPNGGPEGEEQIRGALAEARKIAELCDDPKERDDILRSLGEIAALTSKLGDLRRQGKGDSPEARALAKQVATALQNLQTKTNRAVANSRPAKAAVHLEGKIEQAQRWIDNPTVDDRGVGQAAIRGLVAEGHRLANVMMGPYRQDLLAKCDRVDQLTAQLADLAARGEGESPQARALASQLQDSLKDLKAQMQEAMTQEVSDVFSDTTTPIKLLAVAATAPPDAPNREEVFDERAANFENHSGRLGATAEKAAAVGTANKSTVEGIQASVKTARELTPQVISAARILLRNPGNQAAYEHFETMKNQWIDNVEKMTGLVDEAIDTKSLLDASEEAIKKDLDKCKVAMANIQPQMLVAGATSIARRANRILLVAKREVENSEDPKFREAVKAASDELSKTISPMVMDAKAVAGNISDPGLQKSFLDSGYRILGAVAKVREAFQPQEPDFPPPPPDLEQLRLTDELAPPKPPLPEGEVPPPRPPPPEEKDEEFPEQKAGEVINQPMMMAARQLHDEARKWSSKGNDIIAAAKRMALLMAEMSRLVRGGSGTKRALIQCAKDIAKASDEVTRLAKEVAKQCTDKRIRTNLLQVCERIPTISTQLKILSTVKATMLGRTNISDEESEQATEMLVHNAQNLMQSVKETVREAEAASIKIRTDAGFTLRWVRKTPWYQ

Consider three molecules from publication PMC9265697.

For the assay, the target named is Vinculin (mouse (endogenous in testicular cells and primary spermatocytes)) (UniProt Q64727). As to the kind of experiment: affinity purification with mass spectrometry; co-IP of endogenous VCL with polyclonal anti-Vinculin antibody (ab91459) and Protein A Dynabeads, overnight at 4 °C, from whole-cell/cytoplasmic (Cl) and nuclear (Nu) extracts of mouse testicular single-cell suspension and FACS-sorted primary (pachytene) spermatocytes; rabbit IgG isotype control; on-bead trypsin digest, nLC-MS2, label-free quantification.

B1: Psmd13 (protein, UniProt Q9WVJ2 1-376)
chain: MKDVPAFLQQSQSSGPGQAAVWHRLEELYTKKLWHQLTLEVLDFVQDPCFAQGDGLIKLYENFISEFEHRVNPLSLVEIILHVVRQMTDPNVALTFLEKTREKVKSSDEAVILCKTAIGALKLNIGDLQATKETIEDVEEMLNNLPGVTSVHSRFYDLSSKYYQTIGNHASYYKDALRFLGCVDIKDLPVSEQQERAFTLGLAGLLGEGVFNFGELLMHPVLESLRDTDRQWLIDTLYAFNSGAVDRFQTLKCAWGQQPDLAANEAQLLRKIQLLCLMEMTFTRPANHRQLTFEEIAKSAKITVNKVELLVMKALSVGLVRGSIDEVDKRVHMTWVQPRVLDLQQIKGMKDRLELWCTDVKSMEMLVEHQAQDILT
As to B1, the binding entry is given as “binds”.

B2: Psmd12 (protein, UniProt Q9D8W5 1-456)
chain: MADGGSERADGRIVKMEVDYSATVDQRLPECEKLAKEGRLQEVIETLLSLEKQTRTASDMVSTSRILVAVVKMCYEAKEWDLLNENIMLLSKRRSQLKQAVAKMVQQCCTYVEEITDLPVKLRLIDTLRMVTEGKIYVEIERARLTKTLATIKEQNGDVKEAASILQELQVETYGSMEKKERVEFILEQMRLCLAVKDYIRTQIISKKINTKFFQEENTENLKLKYYNLMIQLDQHEGSYLSICKHYRAIYDTPCIQAESDKWQQALKSVVLYVILAPFDNEQSDLVHRISSDKKLEEIPKYKDLLKLFTTMELMRWSTLVEDYGVELRKGSSETPATDVFSSTEEGEKRWKDLKSRVVEHNIRIMAKYYTRITMKRMAQLLDLSVDESEAFLSNLVVNKTIFAKVDRLAGVINFQRPKDPNNLLNDWSQKLNSLMSLVNKTTHLIAKEEMIHNLQ
As to B2, the binding result is on record as “binds”.

B3: ubiquitin carboxy-terminal hydrolase type 3 (protein, UniProt Q9JKB1 1-230)
chain: MEGQRWLPLEANPEVTNQFLKQLGLHPNWQFVDVYGMEPELLSMVPRPVCAVLLLFPITEKYEVFRTEEEEKIKSQGQDVTSSVYFMKQTISNACGTIGLIHAIANNKDKMHFESGSTLKKFLEESVSMSPEERAKFLENYDAIRVTHETSAHEGQTEAPSIDEKVDLHFIALVHVDGHLYELDGRKPFPINHGKTSDETLLEDAIEVCKKFMERDPDELRFNAIALSAA
On to B3, for which the binding entry is listed as “binds”.
